{"source": "PubChem BioAssay AID264", "about": "(DTP/NCI, 2004)", "system": "nude mice, LX-1 lung xenograft intrarenal, tumor weight T/C", "assay": "NCI In Vivo Anticancer Drug Screen. Data for tumor model Human Lung LX-1 Xenograft (intrarenal inoculation) in NU/NU Swiss (nude) mice", "settings": "T/C endpoint: mean tumor weight change, higher T/C = larger tumour; for T/C: evaluated on day 11", "experimental": "The antitumor activity of compounds was measured in mice bearing transplantable tumors. Survival or tumor size were measured and the results are expressed as the measurement made in the treated group (T) divided by the measurement made in the vehicle treated control group (C). The tumor model used in this assay is Human Lung LX-1 Xenograft (intrarenal inoculation) in NU/NU Swiss (nude) mice", "note": "The list does not hold the whole screen: it covers a few groups of compounds. Other doses and runs of a compound may be missing. T/C is the treated group as % of the vehicle group. Schedule codes are those of the source, read here as Q, the interval in days (D) or hours (H), X, the number of doses. Some T/C values carry the count of animals alive at the toxicity check; without a count or a note in brackets, all were alive then. Some entries give survivors of the animals treated and no T/C: the source files T/C as zero there, which appears to mark a toxic dose or a test without result, not a measured value. Counts of survivors are from the toxicity check, whose day is not always given; animals may have died later."}
{"smiles": "C[N+](CCCl)(CCCl)Cc1ccc([N+](=O)[O-])cc1", "values": [{"measurement": "T/C", "setting": "dose: 12.5 mg/kg/injection, schedule: Q04DX003 (sc), vehicle: saline", "value": "136 % of control"}, {"measurement": "T/C", "setting": "dose: 25.0 mg/kg/injection, schedule: Q04DX003 (sc), vehicle: saline", "value": "104 % of control"}, {"measurement": "T/C", "setting": "dose: 50.0 mg/kg/injection, schedule: Q04DX003 (sc), vehicle: saline", "value": "82 % of control"}]}
{"smiles": "O=NN(CCSCCCl)C(=O)NC1CCCCC1", "values": [{"measurement": "T/C", "setting": "dose: 300.0 mg/kg/injection, schedule: Q04DX003 (sc), vehicle: saline with Tween-80", "value": "82 % of control"}, {"measurement": "T/C", "setting": "dose: 600.0 mg/kg/injection, schedule: Q04DX003 (sc), vehicle: saline with Tween-80", "value": "81 % of control"}]}
{"smiles": "ClCCN(CCCl)c1ccccc1", "values": [{"measurement": "T/C", "setting": "dose: 3.13 mg/kg/injection, schedule: Q01DX010 (sc), vehicle: saline with Tween-80", "value": "120 % of control"}, {"measurement": "T/C", "setting": "dose: 6.25 mg/kg/injection, schedule: Q01DX010 (sc), vehicle: saline with Tween-80", "value": "89 % of control [2 of 2 alive on day 11]"}, {"measurement": "T/C", "setting": "dose: 12.5 mg/kg/injection, schedule: Q01DX010 (sc), vehicle: saline with Tween-80", "value": "122 % of control"}, {"measurement": "survivor count", "setting": "dose: 25.0 mg/kg/injection, schedule: Q01DX010 (sc), vehicle: saline with Tween-80", "value": "0 of 3 on day 11"}]}
{"smiles": "Cc1ccc(N(CCBr)CCBr)cc1", "values": [{"measurement": "T/C", "setting": "dose: 18.75 mg/kg/injection, schedule: Q04DX003 (sc), vehicle: Klucel (hydroxypropylcellulose) (HPC)", "value": "94 % of control"}, {"measurement": "T/C", "setting": "dose: 37.5 mg/kg/injection, schedule: Q04DX003 (sc), vehicle: Klucel (hydroxypropylcellulose) (HPC)", "value": "73 % of control"}, {"measurement": "survivor count", "setting": "dose: 75.0 mg/kg/injection, schedule: Q04DX003 (sc), vehicle: Klucel (hydroxypropylcellulose) (HPC)", "value": "0 of 6 on day 11"}, {"measurement": "survivor count", "setting": "dose: 150.0 mg/kg/injection, schedule: Q04DX003 (sc), vehicle: Klucel (hydroxypropylcellulose) (HPC)", "value": "0 of 6 on day 11"}]}
{"smiles": "CC1=CC(=O)C(N(CCCl)CCCl)=CC1=O", "values": [{"measurement": "T/C", "setting": "dose: 0.75 mg/kg/injection, schedule: Q01DX010 (sc), vehicle: Klucel (hydroxypropylcellulose) (HPC)", "value": "41 % of control"}, {"measurement": "T/C", "setting": "dose: 1.5 mg/kg/injection, schedule: Q01DX010 (sc), vehicle: Klucel (hydroxypropylcellulose) (HPC)", "value": "37 % of control [2 of 2 alive on day 11]"}, {"measurement": "T/C", "setting": "dose: 3.0 mg/kg/injection, schedule: Q01DX010 (sc), vehicle: Klucel (hydroxypropylcellulose) (HPC)", "value": "40 % of control"}]}
{"smiles": "NC1CCCCC1.NP(=O)(O)N(CCCl)CCCl", "values": [{"measurement": "T/C", "setting": "dose: 150.0 mg/kg/injection, schedule: Q04DX003 (sc), vehicle: water", "value": "133 % of control"}, {"measurement": "T/C", "setting": "dose: 300.0 mg/kg/injection, schedule: Q04DX003 (sc), vehicle: water", "value": "41 % of control"}, {"measurement": "survivor count", "setting": "dose: 600.0 mg/kg/injection, schedule: Q04DX003 (sc), vehicle: water", "value": "0 of 3 on day 11"}]}
